Here are results for 54 sequences from PMC7819943, “Rice protein-binding microarrays: a tool to detect cis-acting elements near promoter regions in rice”.

Protein sequences, listed by entry. Tags and fused reporters are not part of them.
UniProt Q0JBA9, entry or part of it: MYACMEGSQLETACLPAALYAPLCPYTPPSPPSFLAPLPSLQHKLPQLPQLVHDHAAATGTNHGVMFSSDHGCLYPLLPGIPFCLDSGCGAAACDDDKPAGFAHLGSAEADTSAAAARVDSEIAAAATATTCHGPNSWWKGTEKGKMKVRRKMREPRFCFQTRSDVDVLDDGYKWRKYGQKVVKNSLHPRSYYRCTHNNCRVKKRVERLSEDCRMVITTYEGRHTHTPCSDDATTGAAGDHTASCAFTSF

The list shows a part of the results.

For the assay, the target named is OsWRKY34 (Oryza sativa, UniProt Q0JBA9 1-250). Kind of assay: protein-binding microarray (RPBM); PBS, 2% BSA, 51.3 ng/ul salmon testes DNA, 50 uM zinc acetate, 200 nM TF, 25 C, 1 h; high values mean tight binding. The note with it: protein: recombinant; tags: N-terminal polyhistidine and DsRed monomer fusion (pET32a); label: CyDye5-dUTP incorporated in the synthesized complementary strand; 3' TTTTT single-stranded linker to array surface; dsDNA, one strand shown. A digest of the protocol: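 Using Ni–NTA, transcription factors fused N-terminally to polyhistidine and DsRed were purified after expression in E. coli BL21-CodonPlus. These were incubated at 200 nM with a blocked, double-stranded custom Agilent array for 1 h at 25 °C in a buffer containing 50 µM zinc acetate, and the array was washed. The binding signal is per-feature fluorescence intensity (arbitrary units) on an Axon 4000B scanner.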
As to “CATCGCCTCCGCTTCTGCTTTTTTTTTTCTTTTTTCTCGTCGGAGTCACCTAGTGCAG”, the binding signal was 10200 fluorescence intensity (a.u.).

With “CATCAATAACAAATGTTTACTGTAGCACAATATTGCTAAACGGAGTCACCTAGTGCAG”, the binding signal is 8580 fluorescence intensity (a.u.).

Regarding “GAATTACCAATTTGACCATACTTTTTCAGGTTTGCTTATTCGGAGTCACCTAGTGCAG”, the binding signal is 9600 fluorescence intensity (a.u.). Regarding “CGCCCGCTGCATGCCACCTATGTCTGCGTTATTGCTTCTCCGGAGTCACCTAGTGCAG”, the binding signal is 8440 fluorescence intensity (a.u.).

In the case of “ATCCAATGGTATAATTTTTTTAGGGAAGGGTTTTTTTTTCCGGAGTCACCTAGTGCAG”, the binding signal is 12600 fluorescence intensity (a.u.). The figure for “CCTCCTCTCTCTCTCGCTCACACTCTCTCTCTTCTCTCTACGGAGTCACCTAGTGCAG” is 11400 fluorescence intensity (a.u.); for “CTCCATAACAGCACCATCTTTGCTTCCTTGCCGGTTAGAGCGGAGTCACCTAGTGCAG” it is 8060 fluorescence intensity (a.u.).

For the sequence “CGGAGGTTCGTTCTTGTTGTTGCATGTATGTTCATCATCACGGAGTCACCTAGTGCAG”, the binding signal was 12900 fluorescence intensity (a.u.).

As for “ACTTCGACAGCTTCACCACCTTCGTTTACCCATTGCCATGCGGAGTCACCTAGTGCAG”, the binding signal is 10100 fluorescence intensity (a.u.). Then “GAGTTTGGACCTGACATTCCTGCCACGTCGGCTAGGCGATCGGAGTCACCTAGTGCAG”, with 9280 fluorescence intensity (a.u.); and “GTTTGCTTGGGGATTAGGACTTCTTGTACAAGGTTGGTTCCGGAGTCACCTAGTGCAG”, with 8530 fluorescence intensity (a.u.). The figure for “CCTTTGCTTGACTTTTTCGGGCCATATCGCTCAAAACCGTCGGAGTCACCTAGTGCAG” is 10100 fluorescence intensity (a.u.); for “TTTACATGGTTGGGTTCTTGTGTATGTGGCGGAAAGAGGGCGGAGTCACCTAGTGCAG” it is 8060 fluorescence intensity (a.u.). Regarding “CTGTTACATTGTTCCAATTTCAACCAAACTTCTATTTTCACGGAGTCACCTAGTGCAG”, the binding signal was 8740 fluorescence intensity (a.u.). Then “ACACCACTTGCCTAGTCATCAACACATCAAAAATATTCATCGGAGTCACCTAGTGCAG”, with 8800 fluorescence intensity (a.u.); and “ACCGCCACCACCTTTGCCAGGCAACCACTGGCCATGAGAGCGGAGTCACCTAGTGCAG”, with 8510 fluorescence intensity (a.u.); and “TGTTGGTTCCATCTTATCTCATCACCTGTCCTATATCTAGCGGAGTCACCTAGTGCAG”, with 9560 fluorescence intensity (a.u.). The figure for “TCCCATAGATTCTCTCCGAACTTCACACACGCCATAACCCCGGAGTCACCTAGTGCAG” is 8620 fluorescence intensity (a.u.); for “TTTTAATACTGTTTGAAACTATTTTACACTGTTCACACAACGGAGTCACCTAGTGCAG” it is 8100 fluorescence intensity (a.u.); for “TGTCCACCGCCGACGGTCGTCGCCGCCCGTCGCCGCTCTACGGAGTCACCTAGTGCAG” it is 9160 fluorescence intensity (a.u.). Then “CCCCATTTCATATTATAAGTTGTTTGACTTTTTTCTTGGTCGGAGTCACCTAGTGCAG”, with 14700 fluorescence intensity (a.u.); and “ATTATACGTTTGCTACTAATTTATACATGATGTTCATATTCGGAGTCACCTAGTGCAG”, with 8880 fluorescence intensity (a.u.); and “GCTGCCGTCACTGCTCTGCTATGGTCATGCTTGAATTATCCGGAGTCACCTAGTGCAG”, with 9380 fluorescence intensity (a.u.). For the sequence “AACATGAGCTGCTTCCAACATATCCTCGGTCCAGCCGTCTCGGAGTCACCTAGTGCAG”, the binding signal is 10000 fluorescence intensity (a.u.). On to “CGGCACTACAAAATTCCATTTTCTTATTAGTACTTTTTAACGGAGTCACCTAGTGCAG”, for which the binding signal is 8660 fluorescence intensity (a.u.). Then “AGCCGATTGCCTTTATATCATCATCTACATTGGACATATACGGAGTCACCTAGTGCAG”, with 10400 fluorescence intensity (a.u.).

“ATGTGCCGATGTATTTGACTTACTGTCCCTGGTAATGAAACGGAGTCACCTAGTGCAG”: the binding signal was 8510 fluorescence intensity (a.u.). The figure for “TTGGCTTGTTGTTCATAGTTCCTACCAATTGCGTGTCCTCCGGAGTCACCTAGTGCAG” is 9590 fluorescence intensity (a.u.); for “AGTAGACCAAGTGTTTGAGTGTGACAATATTTCTTTCTTCCGGAGTCACCTAGTGCAG” it is 9150 fluorescence intensity (a.u.); for “GGACCTACTTTCGCGATTTTCCCCGGTTGGCCACTACTTTCGGAGTCACCTAGTGCAG” it is 18800 fluorescence intensity (a.u.). Regarding “TACTCCCTCCGTTTCATAATATATGTCTAGGTTCATTAACCGGAGTCACCTAGTGCAG”, the binding signal was 8350 fluorescence intensity (a.u.). Then “ACCACATGTATCAGCTCATGCTGAATCCGCCCAAAATAACCGGAGTCACCTAGTGCAG”, with 8620 fluorescence intensity (a.u.). The figure for “TAATCTTTCCTTTGTACCACTGTGCCGTCGACCTGCCAGCCGGAGTCACCTAGTGCAG” is 8920 fluorescence intensity (a.u.); for “TTTTGAGATGCTTCACCTTCACTGCTTGTCCTCATCGATTCGGAGTCACCTAGTGCAG” it is 9910 fluorescence intensity (a.u.). The figure for “GCTCTCTCTCTCTCTCTCTCTCCATTTTTTTCTTATTTTTCGGAGTCACCTAGTGCAG” is 8490 fluorescence intensity (a.u.); for “TTAGATCCTCCTCGTGGTCCTGCCGTCCGTCCCAACTTCGCGGAGTCACCTAGTGCAG” it is 8450 fluorescence intensity (a.u.); for “AGTCAGTCCACACTCCACACCAGTCTCCATCACAGTTTCCCGGAGTCACCTAGTGCAG” it is 11200 fluorescence intensity (a.u.). For the sequence “TATCCCATCGGTCAGACCGCACGCACACCTGCGGTTAGACCGGAGTCACCTAGTGCAG”, the binding signal is 8170 fluorescence intensity (a.u.). The figure for “AAACCCTGGTAGTATCTATCTATACTCTACCTATCTTTTTCGGAGTCACCTAGTGCAG” is 8410 fluorescence intensity (a.u.). Then “TATCCTTCTTATTTGCGTCCCTACAAATTTACTCTGACAACGGAGTCACCTAGTGCAG”, with 12900 fluorescence intensity (a.u.).

Consider “GTCTGGCTATCTTCGGTTCCTCGTCTATTGGTCTATTTGACGGAGTCACCTAGTGCAG”, for which the binding signal is 10600 fluorescence intensity (a.u.).

Regarding “CGTCTACCAACCACTGTGCTGTCGCCATCGTCCAGCCGCTCGGAGTCACCTAGTGCAG”, the binding signal was 10100 fluorescence intensity (a.u.).

On to “GAGAAAACAAGTGCCAAGTGTTTCCACTTACCCATTCTACCGGAGTCACCTAGTGCAG”, for which the binding signal was 8680 fluorescence intensity (a.u.). The figure for “GGTAAAATAGACTTATTCCTCTACTTTTATCATGACTTGCCGGAGTCACCTAGTGCAG” is 9520 fluorescence intensity (a.u.); for “GGGGCACAGGCCACCTCGCCCAAATTGCGTCGCTGCCGTCCGGAGTCACCTAGTGCAG” it is 8990 fluorescence intensity (a.u.); for “GGCCTGTGTGGAGTTAAGTATATTTAAGGTTAGGGGCAGTCGGAGTCACCTAGTGCAG” it is 8670 fluorescence intensity (a.u.). The figure for “ATAGTGTTTAATTACAAATTGTCTGTCATCCCTGTCTGAACGGAGTCACCTAGTGCAG” is 10500 fluorescence intensity (a.u.). As for “ATCACATCAAAATTTTCCTACACACGTAAACTTCCGTCACCGGAGTCACCTAGTGCAG”, the binding signal was 13900 fluorescence intensity (a.u.). The figure for “CGTCACCCGAGCAGCGTTTCGCTTGTACCCGCCCGGCGCACGGAGTCACCTAGTGCAG” is 8850 fluorescence intensity (a.u.); for “TATCTGATGATGTGGGAGGTTCTAAAGGCAGTGCCGCTAGCGGAGTCACCTAGTGCAG” it is 8410 fluorescence intensity (a.u.). The figure for “CACTGCTTGCCTTGGTCTCACTCTAGTCAACGCGCCCACGCGGAGTCACCTAGTGCAG” is 9950 fluorescence intensity (a.u.); for “ACACATGCACTCCTTGACATTAGGCTATATACACATTTCTCGGAGTCACCTAGTGCAG” it is 11600 fluorescence intensity (a.u.); for “GTTTATAGGTTGCTATTGTACCTGCTCTTACTCTAGTGCTCGGAGTCACCTAGTGCAG” it is 8390 fluorescence intensity (a.u.). Then “TTTAAGTCGGTTGATTCGGATACGGTTGGTTAGTTCCGTTCGGAGTCACCTAGTGCAG”, with 10100 fluorescence intensity (a.u.).
